The values below come from PMC7819943, “Rice protein-binding microarrays: a tool to detect cis-acting elements near promoter regions in rice”.

Protein sequences, listed by entry. Tags and fused reporters are not part of them.
UniProt Q0JBA9, entry or part of it: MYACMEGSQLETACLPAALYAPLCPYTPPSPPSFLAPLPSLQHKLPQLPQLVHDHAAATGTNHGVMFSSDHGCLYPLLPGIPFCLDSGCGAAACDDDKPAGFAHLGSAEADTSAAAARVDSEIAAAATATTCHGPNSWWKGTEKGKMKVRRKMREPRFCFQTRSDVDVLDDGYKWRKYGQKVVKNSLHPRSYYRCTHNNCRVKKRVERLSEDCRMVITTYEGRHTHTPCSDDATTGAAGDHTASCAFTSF

The other results are listed elsewhere or left out.

The test concerns the target OsWRKY34 (Oryza sativa, UniProt Q0JBA9 1-250). In words: protein-binding microarray (RPBM); PBS, 2% BSA, 51.3 ng/ul salmon testes DNA, 50 uM zinc acetate, 200 nM TF, 25 C, 1 h; high values mean tight binding. The following applies: protein: recombinant; tags: N-terminal polyhistidine and DsRed monomer fusion (pET32a); label: CyDye5-dUTP incorporated in the synthesized complementary strand; 3' TTTTT single-stranded linker to array surface; dsDNA, one strand shown. The gist of the method:
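A custom Agilent array was converted to double-stranded form by primer extension with Cy5-dUTP and blocked with 2% BSA. Protein at 200 nM in PBS with 2% BSA, salmon testes DNA and 50 µM zinc acetate was applied for 1 h at 25 °C, followed by washing. The proteins were polyhistidine–DsRed N-terminal fusions of transcription factors, expressed in E. coli BL21-CodonPlus and Ni–NTA-purified. The binding signal is per-feature fluorescence intensity (arbitrary units) from an Axon 4000B scanner.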
As for “ACTAGATCTTCGTTCCACGTGGCATTGACGTGACACTCACCGGAGTCACCTAGTGCAG”, the binding signal was 8200 fluorescence intensity (a.u.).

With “TCCTACCTGTCATACACACACAGTGTCTTGAAGTCCGTGTCGGAGTCACCTAGTGCAG”, the binding signal was 9820 fluorescence intensity (a.u.).

For “TAGCTAGCAATCTCCTGTTGCAACATGTGTCGTTCAATTGCGGAGTCACCTAGTGCAG”, the binding signal was 8690 fluorescence intensity (a.u.).

As for “CCAGCCATCCGCGCAACGAACCTAAGCCGTCCGATTCTCCCGGAGTCACCTAGTGCAG”, the binding signal is 8670 fluorescence intensity (a.u.).

With “ATTTTGAACAATACCATTTTCAAACACGTTCATTTAGTTTCGGAGTCACCTAGTGCAG”, the binding signal is 9800 fluorescence intensity (a.u.).

As to “AGAACACTGTGTCCCTTACGTGGCGACCTAATTTACCGTCCGGAGTCACCTAGTGCAG”, the binding signal was 8500 fluorescence intensity (a.u.).

As to “AGCCACCATCACTCCACCTGCTGAAAGCACTGCCCGAGTACGGAGTCACCTAGTGCAG”, the binding signal is 9750 fluorescence intensity (a.u.).

As for “CTAAAGTTAACGCTCGTTCTGGTATTTACGGCTATTTTTTCGGAGTCACCTAGTGCAG”, the binding signal is 9080 fluorescence intensity (a.u.).

As to “TCGCGTGTATCACCTTTTCCCCATTTTTTTTAATTCCTATCGGAGTCACCTAGTGCAG”, the binding signal is 9950 fluorescence intensity (a.u.).

With “TGACCCGCCTCGCGCTCGCCTGCCACCACCGCCACCGCCACGGAGTCACCTAGTGCAG”, the binding signal was 8400 fluorescence intensity (a.u.).

“GAAAATCCTCGATGCATTCAATCGGTTCCTCGGGGAAGAACGGAGTCACCTAGTGCAG”: the binding signal was 8560 fluorescence intensity (a.u.).

Consider “ACGCGCTCGCGCTGCTCCTCCTTCTCGCAGCAGATATACCCGGAGTCACCTAGTGCAG”, for which the binding signal was 8410 fluorescence intensity (a.u.).

Take “ACATCTCTGTCTGTCTCCGCTTTAAAGCTGTCACCTTTTCCGGAGTCACCTAGTGCAG”: the binding signal is 9240 fluorescence intensity (a.u.).

For the sequence “ACGGCCAGTGACCCAGTTGTACATATACCCAGCGCACACTCGGAGTCACCTAGTGCAG”, the binding signal was 8700 fluorescence intensity (a.u.).

Regarding “TCAATCGGCTGCACTTAATTTACTGCAGTTCGTCCTATTCCGGAGTCACCTAGTGCAG”, the binding signal is 9160 fluorescence intensity (a.u.).

For the sequence “CCGCCAGCGCACCACGCACCCCGCGGCCCGCGCTCGTCGCCGGAGTCACCTAGTGCAG”, the binding signal is 8550 fluorescence intensity (a.u.).

“CGTCGCCGAGCCGCCTCCGCCTCACCGTGCCGACCACCACCGGAGTCACCTAGTGCAG”: the binding signal is 8940 fluorescence intensity (a.u.).

“CCACAGTCTACAGCATCTCTGCTTTGCAGCTGCAGCTTAACGGAGTCACCTAGTGCAG”: the binding signal is 8780 fluorescence intensity (a.u.).

With “CTTTTCTCCACGTCGCTGCAGCCGTGTCCTCATCGACCTTCGGAGTCACCTAGTGCAG”, the binding signal is 8700 ± 537 fluorescence intensity (a.u.).

On to “GCACCACTTTTCACCTTTTCTTCTCCTCCTCCATTTCCATCGGAGTCACCTAGTGCAG”, for which the binding signal is 8260 fluorescence intensity (a.u.).

“CCCCGGCTTTGACTCACAGACTCCACGTCTCCACCCCGAACGGAGTCACCTAGTGCAG”: the binding signal is 9870 fluorescence intensity (a.u.).

“GTACCCATCAATAGTAAGTCACCCACATTTGTACTTTGTTCGGAGTCACCTAGTGCAG”: the binding signal was 8960 fluorescence intensity (a.u.).

For “AGGTGGTGGGCTGTGGGTACGGGCGGCGGCGGCGGCGATGCGGAGTCACCTAGTGCAG”, the binding signal was 8960 fluorescence intensity (a.u.).

Consider “GTCCAAATTATCTCTCTCATTTTCTTCTCTCATTAATCCACGGAGTCACCTAGTGCAG”, for which the binding signal is 10100 fluorescence intensity (a.u.).

For the sequence “GTACGCCCGCATTAGCTATGCGCTCATCTACGACATCCAGCGGAGTCACCTAGTGCAG”, the binding signal is 9000 fluorescence intensity (a.u.).

On to “TCTTGTGTACGTTGTGTGTTGTCATTGTGTGTCTGTCTTACGGAGTCACCTAGTGCAG”, for which the binding signal was 17200 fluorescence intensity (a.u.).

In the case of “CCACTACTGCCCTTGCTTGACTCGTTTGGTTGGTTGCCTACGGAGTCACCTAGTGCAG”, the binding signal is 10200 fluorescence intensity (a.u.).

Regarding “GGTTTTGGAGGACGGTTTCTCTAAGATGGCGGTGTTGACCCGGAGTCACCTAGTGCAG”, the binding signal is 9560 fluorescence intensity (a.u.).

For “GCTCACGTTGACCTGCCTTAGGCCACCGTTCTCACCGGCTCGGAGTCACCTAGTGCAG”, the binding signal was 8030 fluorescence intensity (a.u.).

In the case of “GGTGACCTCGTGGCAAGCAAACTTAACTACCACATGAGAGCGGAGTCACCTAGTGCAG”, the binding signal is 8550 fluorescence intensity (a.u.).

In the case of “TATACAATACAGCTCTGTCCCAACTTCCGATACATACATACGGAGTCACCTAGTGCAG”, the binding signal is 9770 fluorescence intensity (a.u.).

Regarding “CCCGGGTCGGGGTCGGGGTCCGGGGTCGGGGTCCCCAACTCGGAGTCACCTAGTGCAG”, the binding signal is 13000 fluorescence intensity (a.u.).

On to “CATCATGTCTGTCCATGTTCTCTGTACTAGAATGTGTCATCGGAGTCACCTAGTGCAG”, for which the binding signal is 10300 fluorescence intensity (a.u.).

With “GTGCACACATATGCAAAAATGCCATCCATTCATCCCAGTGCGGAGTCACCTAGTGCAG”, the binding signal was 8870 fluorescence intensity (a.u.).

On to “GCTTCTCTTCATTCATTCTTTGACTTCTTCTCCTAATTTACGGAGTCACCTAGTGCAG”, for which the binding signal is 11800 fluorescence intensity (a.u.).

In the case of “GTAGATGATGGTCATGTGTTATTTTTGTTGTTGTATTGTACGGAGTCACCTAGTGCAG”, the binding signal is 11900 fluorescence intensity (a.u.).

As to “ACCTGTCATCCACATCACCGCAATTCATTCTGACACCTGGCGGAGTCACCTAGTGCAG”, the binding signal was 10300 fluorescence intensity (a.u.).

As for “TATTTTTCCTATGTTTTACAATCCTCTGTTTTACACTCGTCGGAGTCACCTAGTGCAG”, the binding signal is 8860 fluorescence intensity (a.u.).

As for “CGCTGTATTTTTCCTCCTCCCTTCATCGGTCTTCATATTACGGAGTCACCTAGTGCAG”, the binding signal is 8810 fluorescence intensity (a.u.).

On to “GTGTCCAACTTTAACTGTCCGTCTTATATGAAATTTTTTTCGGAGTCACCTAGTGCAG”, for which the binding signal was 10200 fluorescence intensity (a.u.).

“CCATTGTTTTCTTCTTGTCCTTTTAGAGATGTTGGGTACACGGAGTCACCTAGTGCAG”: the binding signal is 8240 fluorescence intensity (a.u.).

As for “CGCGAACGACGTACACCATCCGATCGATCCATCAAACCAGCGGAGTCACCTAGTGCAG”, the binding signal was 8190 fluorescence intensity (a.u.).
